PubChem BioAssay AID1259308 | NCATS – 2017
The whole screen tested about 59,000 reagents; this is an unselected part. About 1,510 of all reagents (2.6%) were called active. 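Calls use total luciferase alone and ignore viability, so some active siRNAs may act by altering cell number.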 The numbers tell different reagents against one gene apart.

Purpose: 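Knock-downs that increase output of a recombinant reporter protein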 (primary screen)
System: human HEK293 embryonic kidney cells stably expressing firefly luciferase (HEK-CMV-Luc2-Hygro)
Reagent: single siRNA against human genes, 0.8 pmol siRNA per well
Duration: 72 h
Detection: 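Luciferase light (ONE-Glo) measured on one replicate plate set and viability (CellTiter-Glo) on the other, scaled to a negative control siRNA, with robust z-scores and luciferase per cell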
Reading the numbers: total luciferase, z-score and total luciferase, % of control: higher = more reporter protein produced; luciferase per cell, z-score: higher = more reporter output per viable cell; viable cells, % of control: higher = more viable cells
Active means: 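An siRNA counts as active if its total luciferase robust z-score exceeds 3; genes with two or more such siRNAs out of three were retested with fresh siRNAs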
Meaning of the calls: active = raised luciferase; inactive = no rise

no.	Gene	reagent	total luciferase, z-score	total luciferase, % of control	luciferase per cell, z-score	viable cells, % of control	Outcome
1	SETP4 (SET pseudogene 4)	1	0.873	99.2	0.647	93.5	inactive
2	SETP4 (SET pseudogene 4)	2	-0.169	78.5	0.422	78.5	inactive
3	SETP4 (SET pseudogene 4)	3	1.08	103	0.747	94.9	inactive
4	NYAP1	1	4.43	170	3.07	84.5	active
5	NYAP1	2	-0.0106	81.7	-0.206	96.4	inactive
6	NYAP1	3	-0.356	74.8	-0.247	89.2	inactive
7	SLC25A30	1	-0.137	79.2	-0.295	95.6	inactive
8	SLC25A30	2	0.0147	82.2	0.426	82.1	inactive
9	SLC25A30	3	-0.765	66.7	0.0231	74.1	inactive
10	UBP1 (upstream binding protein 1)	1	1.48	111	1	95.6	inactive
11	UBP1 (upstream binding protein 1)	2	1.39	110	1.11	91.4	inactive
12	UBP1 (upstream binding protein 1)	3	1.1	104	0.871	92.1	inactive
13	TRIM75 (tripartite motif containing 75)	1	0.163	85.1	2.44	50	inactive
14	TRIM75 (tripartite motif containing 75)	2	1.32	108	1.01	92.7	inactive
15	TRIM75 (tripartite motif containing 75)	3	0.0648	83.2	-1.18	127	inactive
16	HELLS (helicase, lymphoid specific)	1	1.68	115	1.7	82.4	inactive
17	HELLS (helicase, lymphoid specific)	2	-0.356	74.8	-0.518	95.8	inactive
18	HELLS (helicase, lymphoid specific)	3	0.567	93.2	-0.223	110	inactive
19	OR9Q2 (olfactory receptor family 9 subfamily Q member 2)	1	2.03	122	2.91	63.6	inactive
20	OR9Q2 (olfactory receptor family 9 subfamily Q member 2)	2	-1.5	52	0.227	54.7	inactive
21	OR9Q2 (olfactory receptor family 9 subfamily Q member 2)	3	-0.379	74.3	-0.228	88.2	inactive
22	OR7E154P	1	-0.28	76.3	-0.673	102	inactive
23	OR7E154P	2	-0.175	78.4	0.218	82.7	inactive
24	OR7E154P	3	-0.153	78.8	0.0291	87.4	inactive
25	SHISA8 (shisa family member 8)	1	-0.111	79.7	0.219	84.1	inactive
26	SHISA8 (shisa family member 8)	2	1.5	112	1.26	89.6	inactive
27	SHISA8 (shisa family member 8)	3	-0.109	79.7	-0.37	98.2	inactive
28	UVSSA (UV stimulated scaffold protein A)	1	-1.14	59.1	-0.556	76.5	inactive
29	UVSSA (UV stimulated scaffold protein A)	2	0.493	91.7	1.06	77.5	inactive
30	UVSSA (UV stimulated scaffold protein A)	3	-0.568	70.6	-0.385	87.3	inactive
31	SYNJ1 (synaptojanin 1)	1	-0.396	74	-0.575	96.2	inactive
32	SYNJ1 (synaptojanin 1)	2	-0.188	78.1	-0.852	109	inactive
33	SYNJ1 (synaptojanin 1)	3	-0.844	65.1	-1.13	97.9	inactive
34	MRPL51 (mitochondrial ribosomal protein L51)	1	-0.208	77.7	-0.233	92.4	inactive
35	MRPL51 (mitochondrial ribosomal protein L51)	2	0.879	99.4	0.392	100	inactive
36	MRPL51 (mitochondrial ribosomal protein L51)	3	-0.745	67.1	-0.538	86.4	inactive
37	KRI1 (KRI1 homolog)	1	-0.644	69.1	-0.804	95.4	inactive
38	KRI1 (KRI1 homolog)	2	1.72	116	1.03	99	inactive
39	KRI1 (KRI1 homolog)	3	-0.164	78.6	-0.892	111	inactive
